This note sets out measurements from patent US20260116980A1.

No constants are given. Whether binding was seen depends on the method and setting. Some binding calls cover weakened binding; strength is not graded here.

The target of this assay is cyno B7H3 on overexpressing cells (cyno). In words: FACS on NK92mi/cynoB7H3 cells, serially diluted antibody, APC-conjugated secondary antibody.

B1: BGA-3726 (purified anti-B7H3 mAb as used in Examples 2-4) (antibody, V domains shown)
VH: QVQLQESGPGLVKPSGTLSLTCAVSGGSISTSNWWNWVRQSPGKGLEWIGEIYPTGNTNYSPSLKSRVTISIDKSKNQFSLKLNSVTAADTAVYYCARGWNWFDPWGQGTLVTVSS
VL: EIVLTQSPGTLSLSPGERATLSCRTSQSINGILLAWYQQKPGQAPRLLIYGASSRATGIPDRFSGSGSGTDFTLSISRLEPEDFAVYYCQQYGSSPRTFGQGTKVEIK
For B1, the binding result was “binds”.
